From US7098012
Results are given in words; binding and its absence hold for the method and conditions named. Some results given as binding are weak or reduced against the parent protein; the word gives no strength.

Chains of the proteins cited; added tags and fusions are not shown. Lines headed by an entry give the natural chain unless they say otherwise; changes in a name come on top.
UniProt Q9UBB5: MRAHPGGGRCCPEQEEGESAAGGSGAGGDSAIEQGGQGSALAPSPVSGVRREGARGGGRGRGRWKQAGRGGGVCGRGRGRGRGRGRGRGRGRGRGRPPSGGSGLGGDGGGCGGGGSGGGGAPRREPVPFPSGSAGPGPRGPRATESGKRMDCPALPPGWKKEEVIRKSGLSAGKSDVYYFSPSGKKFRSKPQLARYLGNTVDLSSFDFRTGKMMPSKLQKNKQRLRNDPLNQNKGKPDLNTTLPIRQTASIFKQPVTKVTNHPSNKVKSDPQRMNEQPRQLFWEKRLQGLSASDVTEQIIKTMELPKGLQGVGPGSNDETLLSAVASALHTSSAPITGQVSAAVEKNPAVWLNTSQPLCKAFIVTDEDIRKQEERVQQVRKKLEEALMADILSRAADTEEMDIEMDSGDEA

Target: cloned human DNA demethylase (dMTase1), His-tagged, transiently expressed from pcDNA3.1/His Xpress in human embryonal kidney cells (human) (UniProt Q9UBB5)
Test: non-denaturing glycerol gradient sizing of transiently expressed, Ni2+-purified dMTase; activity fractionated at the 160-190 KDa range against about 40 KDa for the polypeptide (data not shown)

## cloned human DNA demethylase (dMTase1), His-tagged, transiently expressed from pcDNA3.1/His Xpress in human embryonal kidney cells (from UniProt Q9UBB5 150-411) (enzyme)
  binding: binds
